Source: paper PMC9588061
No constants are given. Whether binding was seen depends on the method and setting. Binding seen in cells or lysates may run through a third protein. Here binding means that the protein was enriched with, or labelled near, the bait; the list need not be complete.

Sequences of proteins named here, by UniProt entry; tags and fusion partners are left off. A change or cut given only in a name is not applied to a line headed by its entry.
UniProt F7W428: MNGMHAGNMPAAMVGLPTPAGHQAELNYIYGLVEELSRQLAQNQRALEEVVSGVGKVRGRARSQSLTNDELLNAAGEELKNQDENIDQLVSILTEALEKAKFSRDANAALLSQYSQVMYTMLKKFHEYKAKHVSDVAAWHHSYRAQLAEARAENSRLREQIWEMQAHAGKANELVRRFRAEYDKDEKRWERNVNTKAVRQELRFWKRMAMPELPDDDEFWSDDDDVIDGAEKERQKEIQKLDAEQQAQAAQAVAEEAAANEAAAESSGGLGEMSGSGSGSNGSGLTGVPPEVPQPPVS
UniProt F7W245: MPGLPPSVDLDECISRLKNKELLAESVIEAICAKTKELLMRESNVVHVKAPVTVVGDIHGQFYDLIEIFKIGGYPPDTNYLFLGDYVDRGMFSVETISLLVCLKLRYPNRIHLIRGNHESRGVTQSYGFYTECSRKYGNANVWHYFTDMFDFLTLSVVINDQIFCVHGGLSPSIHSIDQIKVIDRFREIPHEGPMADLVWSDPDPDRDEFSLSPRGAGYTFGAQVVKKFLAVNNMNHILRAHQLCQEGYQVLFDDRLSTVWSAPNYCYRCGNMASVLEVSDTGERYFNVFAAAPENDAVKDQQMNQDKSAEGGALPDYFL

B1: PRO11 (protein, UniProt Q70M86 1-845)
chain: MGTNGVHVSFGAGHEMGGVMGNGSGQPPATEYTLQGVMRFLQTEWHRHERDRNAWEIEKQEMRARIANLEGQARRADATQKALKRYVSILEKKVKEQSAALKSGGKEKGVEDEAEAEDNKTKLDRSALIQEKLRPNTKLSGAPNEAENVEIGPPDDESARNELKTFLDQCQAEFTYLMVTPANPQPPRESPPLPILDDFREGEALNQQLEQSYQRSQQSQIRDLLAQQAAAANATNVAAVQSQQQQPQQQQHAVGPRPQTNQPPKGYGELAQGAPMERSSRGQQLHDILKSGETPDWSASMQSQPVEEPTSALSKAPPMVRGDGREPAVPKSASTTDAWDFNESNFQDPNAMPQPTPQQSFSSRPDTDAFPSAENLTKSPNRGALSHRRKSSSGMARRRSAEHELSLGSLQQKAEGTMFKFRFGLRGHLDVVRTVIFSGGGSPGEPEICTAGDDGLVKRFHIPDRHIGQRNADGDLDVAADFTHRGHSGAVLSLASWSPSPNFSTGGRAQGDGWIFSGGQDATIRVWERGRVDPKATLDGHTDAVWALCVLPTNLGAIFGQTNSHGPPDRILLVSGAADGTVKVWAVSAPPQLTSPQPGPGRRGPGGRVRGNSMSSGSAFPSSPQPTTASNSPFHHTLVHTIKRANSEASPTCITALSPNGETFAVSYADAAIIVYDTRSGEEIGTMASLDTYDGTNNTAVNAVVATTVGLDQTQGPGGEDESGGGPTGGGRSMAGSGVEGTIISGHEDRYIRFFDANSGQCTYNMLAHPGSVSSLSLSPDGRELVSAGHDMSLRFWSLETRSCTQEMTCHRSMRGEGVCAVVWSQDGRWVVSSGGDGMVKVYAR

Molecular target: SCI1-L-TurboID fusion protein (STRIPAK complex interactor 1 fused to TurboID) (S. macrospora) (UniProt F7W428)
Experiment: proximity labelling; BioID with SCI1-L-TurboID as bait in S. macrospora Δsci1; liquid SWG (50 nM biotin) 4 days at 27 °C, boosted with 10 µM biotin for 30 min; extract denatured in 4% SDS, biotinylated proteins enriched on Strep-Tactin Sepharose, SDS-PAGE, tryptic in-gel digest, LC-MS with label-free quantification; control: free L-TurboID strain diluted 1:6 with wild-type extract; four biological replicates

| Molecule | binding |
| --- | --- |
| SmPP2Ac1 (from UniProt F7W245) (enzyme) | binds |
| B1 | binds |
